Reference: paper PMC6008445
These are yes or no findings as the source states them, for the method shown. Binding seen in cells or lysates may run through a third protein. Some results given as binding are weak or reduced against the parent protein; the word gives no strength.

Protein sequences, listed by entry. Tags and fused reporters are not part of them. Lines headed by an entry give the natural chain unless they say otherwise; changes in a name come on top. Chains listed by the source or under a name are the forms on record and can include a tag or linker. Residues count along the entry.
UniProt P35968, residues 20-1356: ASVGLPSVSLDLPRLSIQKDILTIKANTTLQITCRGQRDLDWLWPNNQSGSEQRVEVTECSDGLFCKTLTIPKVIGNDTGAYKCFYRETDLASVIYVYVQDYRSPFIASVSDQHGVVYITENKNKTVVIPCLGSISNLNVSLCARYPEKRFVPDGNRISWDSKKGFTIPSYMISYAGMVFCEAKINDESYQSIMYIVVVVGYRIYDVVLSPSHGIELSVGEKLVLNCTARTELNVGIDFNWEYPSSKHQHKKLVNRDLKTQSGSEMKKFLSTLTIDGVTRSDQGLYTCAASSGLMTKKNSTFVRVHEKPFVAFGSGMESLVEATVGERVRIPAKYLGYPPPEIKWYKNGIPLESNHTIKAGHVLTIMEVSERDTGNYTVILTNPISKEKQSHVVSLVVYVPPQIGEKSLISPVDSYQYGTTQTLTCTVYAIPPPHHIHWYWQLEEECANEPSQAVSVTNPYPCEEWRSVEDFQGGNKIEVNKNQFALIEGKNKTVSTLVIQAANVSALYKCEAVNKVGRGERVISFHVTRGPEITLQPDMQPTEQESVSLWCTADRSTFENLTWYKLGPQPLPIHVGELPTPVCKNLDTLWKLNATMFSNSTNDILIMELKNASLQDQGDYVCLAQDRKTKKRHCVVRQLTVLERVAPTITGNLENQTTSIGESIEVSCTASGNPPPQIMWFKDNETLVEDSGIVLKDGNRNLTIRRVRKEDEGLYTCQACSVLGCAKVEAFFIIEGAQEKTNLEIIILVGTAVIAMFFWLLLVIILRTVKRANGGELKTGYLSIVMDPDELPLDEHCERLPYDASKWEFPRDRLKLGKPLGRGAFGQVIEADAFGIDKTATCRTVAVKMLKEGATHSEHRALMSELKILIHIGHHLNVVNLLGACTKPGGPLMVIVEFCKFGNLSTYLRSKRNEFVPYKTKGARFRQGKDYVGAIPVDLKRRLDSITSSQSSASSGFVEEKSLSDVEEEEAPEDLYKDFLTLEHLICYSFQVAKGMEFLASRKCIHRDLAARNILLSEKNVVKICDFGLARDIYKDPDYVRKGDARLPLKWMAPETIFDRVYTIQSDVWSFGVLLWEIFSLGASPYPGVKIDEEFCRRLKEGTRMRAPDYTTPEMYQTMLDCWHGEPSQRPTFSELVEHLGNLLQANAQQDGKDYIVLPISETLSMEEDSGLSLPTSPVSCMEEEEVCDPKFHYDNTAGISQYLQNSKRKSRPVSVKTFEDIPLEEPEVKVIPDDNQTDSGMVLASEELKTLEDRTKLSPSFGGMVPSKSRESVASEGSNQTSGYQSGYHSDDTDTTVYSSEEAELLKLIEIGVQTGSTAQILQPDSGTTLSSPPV
sVEGFR1-i13 (P17948-2, form named): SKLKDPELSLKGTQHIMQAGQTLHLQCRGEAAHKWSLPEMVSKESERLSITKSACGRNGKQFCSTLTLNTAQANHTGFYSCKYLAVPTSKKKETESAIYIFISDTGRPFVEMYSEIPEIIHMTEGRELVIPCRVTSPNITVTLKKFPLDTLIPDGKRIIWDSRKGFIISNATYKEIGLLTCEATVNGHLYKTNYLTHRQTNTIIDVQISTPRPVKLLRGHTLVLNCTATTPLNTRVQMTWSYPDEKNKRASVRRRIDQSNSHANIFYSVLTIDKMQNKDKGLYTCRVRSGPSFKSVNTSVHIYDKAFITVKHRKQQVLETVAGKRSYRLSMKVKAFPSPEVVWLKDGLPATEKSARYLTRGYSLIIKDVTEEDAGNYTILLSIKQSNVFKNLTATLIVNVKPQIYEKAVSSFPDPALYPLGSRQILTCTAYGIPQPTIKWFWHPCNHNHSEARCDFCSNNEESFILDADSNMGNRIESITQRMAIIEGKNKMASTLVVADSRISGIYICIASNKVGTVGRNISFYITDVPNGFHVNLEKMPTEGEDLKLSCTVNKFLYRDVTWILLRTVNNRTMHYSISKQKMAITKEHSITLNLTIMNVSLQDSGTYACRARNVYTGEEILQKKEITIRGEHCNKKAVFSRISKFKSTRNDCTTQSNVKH

Assays:
[1] = biological target: VEGFR2 (human (endogenous in MGH7 and H2170)) (UniProt P35968); assay: proximity ligation; Duolink In Situ kit on MGH7 cells treated with SU5416 (10 µM, 24 h); confocal microscopy; complexes seen at the plasma membrane and in the cytoplasm
[2] = biological target: VEGFR2 (human (endogenous in MGH7 and H2170)) (UniProt P35968); assay: co-IP; MGH7 cells, RIPA lysate (1 mg protein), VEGFR2 precipitated with anti-VEGFR2 (55B11) and protein A magnetic beads overnight at 4 °C, irrelevant rabbit IgG as control; western blot of the precipitates; cells untreated or treated with bevacizumab (10 µg/ml, 72 h), SU5416 (10 µM, 24 h), recombinant sVEGFR1 (1 ng/ml, 24 h), or sVEGFR1-i13 siRNA
[3] = biological target: VEGFR2 (human (endogenous in MGH7 and H2170)) (UniProt P35968); assay: co-IP; H2170 cells, RIPA lysate, VEGFR2 precipitated with anti-VEGFR2 (55B11) and protein A magnetic beads overnight at 4 °C; western blot of the precipitates; cells untreated or treated with bevacizumab (10 µg/ml, 72 h) or recombinant sVEGFR1

Measured: binding

sVEGFR1-i13 (from UniProt P17948-2 27-687)
binds: [1] | [2] | [3]
